From patent publication US9932621B2, “Modulators for Sirt5 and assays for screening same” (CORNELL UNIVERSITY, priority 2010, dated 2018)
At least one read-out could not be matched to a standard name with certainty. Marks after values point to notes of the source that are not given here.

molecular target: T1, Sirt5 (Homo sapiens, UniProt Q9NXA8); assay: Sirt5 deacetylation, demalonylation, desuccinylation kinetics on WW-tagged peptides by HPLC; assay type: biochemical; conditions: peptides with two C-terminal tryptophan residues, <2 estimated from detection limit
T1 construct: made in house
T1 sequence (Q9NXA8 37-310): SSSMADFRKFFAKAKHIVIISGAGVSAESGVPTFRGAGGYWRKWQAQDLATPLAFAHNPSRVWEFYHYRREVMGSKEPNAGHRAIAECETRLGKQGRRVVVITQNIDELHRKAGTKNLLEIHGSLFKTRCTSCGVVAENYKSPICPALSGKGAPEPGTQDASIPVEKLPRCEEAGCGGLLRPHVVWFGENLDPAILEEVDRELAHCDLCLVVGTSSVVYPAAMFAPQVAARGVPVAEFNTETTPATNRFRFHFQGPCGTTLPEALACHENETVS
Method: For determination of kcat and Km, human Sirt1, Sirt2, Sirt3 and Sirt5 were measured by detecting the deacylated peptide from H3K9 acyl peptides using HPLC. Purified Sirtuin was incubated with 1.0 mM of NAD in 20 mM Tris-HCl buffer (pH 7.5) containing acyl peptides (0-750 μM) and 1 mM DTT in 60 μL reactions at 37° C. The reactions were stopped with 100 mM HCl and 160 mM acetic acid, analyzed by HPLC with a reverse phase C18 column (250×4.6 mm, 90 A, 10 μm, GraceVydac, Southborough, Mass.), with a linear gradient of 0% to 20% B for 10 min (1 mL/min). […] The kcat and Km values were obtained by curve-fitting the Vinitial/[E] versus [S] plot using KaleidaGraph. For Sirt5 R105M, the observed second order rate constant, kobs (rate/([Sirtuin][NAD])) was detected instead of kcat and Km because of the very weak deacylation activity. The experiments were done in duplicate.
For comparing the deacetylation, demalonylation and desuccinylation activities of Sirt5 on different peptide backbones (results shown in Table 2), histone H3, GDH and ACS2 peptides with two tryptophan residues at the C-terminal were used to allow better detection and quantification on HPLC. The determination of kcat and Km was carried out essentially the same as mentioned above with slight modifications. The reactions were quenched with 60 μL 10% TFA. The chromatography gradient was 0% to 50% B for 20 min (1 mL/min). The peptides were detected and quantified on the LC by the absorption at 280 nm.

Substance	kcat/Km
GDH K503 (498-509 + WW) acetyl peptide: GDH K503 acetyl peptide (498-509) with two C-terminal tryptophan residues (SGASEKDIVHSGWW)	<2** s^−1M^−1
GDH K503 (498-509 + WW) malonyl peptide: GDH K503 malonyl peptide (498-509) with two C-terminal tryptophan residues (SGASEKDIVHSGWW)	1.6 × 10^3 s^−1M^−1
GDH K503 (498-509 + WW) succinyl peptide: GDH K503 succinyl peptide (498-509) with two C-terminal tryptophan residues (SGASEKDIVHSGWW)	2.0 × 10^3 s^−1M^−1
